According to PubChem BioAssay AID1508600 (Functional Genomics Laboratory (NCATS/FGL), 2020):
Screen size: about 53,000 sequences; about 3,700 (7%) were called active.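 Rule for the calls: active = gene knockdowns whose robust z-score for IL-1 alpha signal is at least 2 or at most -2, so actives lie on both sides; inactive = the rest.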 Some of the results follow.

Experiment: Components of the Cytosolic LPS Sensing Pathway: Gene Identification via Genome-wide siRNA Screen;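 note: robust z of the log signal after scaling to non-targeting control siRNA wells of the plate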
Details: RAW264.7 macrophages, IL-1a HTRF, actives lie on both sides, screened at 100 nM (by protocol), cells primed 5 h with Pam3CSK4 first
Procedure, shortened: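 Three distinct siRNAs per gene were tested singly at 100 nM in RAW264.7 macrophages. Following Pam3CSK4 priming and 24 hour LipidA transfection, IL-1a secretion was read by HTRF.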

Sequence	z-score
GGCGGAUCAAACUCGGAUUTT against Pou3f2	inactive: 0.737
GGGAUCCGUAAAGAAGAAATT against Dnaaf1	inactive: 0.683
GGAUAGCUCUAUUAUCUCUTT against Serpinb3a	inactive: 1.24
GCCAGGAAUCACAAGAGCUTT against Mtg1	inactive: 0.571
CCAUUGUGCAUUAAACAUUTT against Mrpl35	inactive: 0.847
GGAACUGGCAAGUUAGUUUTT against 3010003L21Rik	inactive: 1.31
GUUCACCGACAAGAGCUGCTT against Ccl26	inactive: 0.139
GGUGAACCUCAAUAAUAUCTT against Tmod4	inactive: 0.274
GGUAGCAUUAUUUGUCCUATT against Pcdh15	inactive: 0.675
GGAGAACCAGAUCCUGAUCTT against Mypop	inactive: 0.511
UAGAAUCCAUGCAAGGGCGTT against Prss41	inactive: 1.18
GCUCCUCUCCAAGGUCAUUTT against Olfr96	inactive: 0.652
CCGUAGUUAUGAUACCAAUTT against Cyp3a25	inactive: 0.511
GGAGAAUGUACAAAGGCUUTT against Slc7a13	inactive: 0.369
CCCUGUACCUAGCUCAAGATT against Ecel1	inactive: -0.693
GCUAGAUCUUUCAUCCAACTT against Lrtm1	inactive: 1.2
GCAACAACCACCAAAUCUATT against Prol1	inactive: -1.53
CCCUGGUCAAUCUUUUCCGTT against Tmem39a	inactive: -0.0939
GGCACCCAUUCCUAAAAUGTT against Hmgn5	inactive: -0.929
CCAAUUACGGAGAUUGGAATT against Tspan6	inactive: -0.803
GGCGAUUCAAGGAGUUCCUTT against Mcm5	inactive: 0.939
GGAUGAUGUCAGCACUUUUTT against Taf8	inactive: -0.508

Sequence	z-score
GGCCUCCAAUAAAGCUCAGTT against Ttc28	active: -2.07
GGCUCUCAGUGCCAUCAUUTT against Stk40	inactive: -0.858
GGGAUAAACCUUCGCCAUATT against Fkrp	inactive: 0.748
GCCUAAUUAUAGUCACUCUTT against Olfr1089	inactive: 0.15
GGUCUGUGGAUUUAAACUUTT against Sestd1	inactive: 0.931
GCGUGUUACCAUAAAACUUTT against Rubcn	inactive: 0.56
CCAGCCAACGAGAACUUUUTT against Szt2	inactive: 0.325
GGACCAGAAAAUUCACUUUTT against Gdap2	inactive: 0.761
GGGUCCCGAUCCAUAAUUGTT against Itpka	inactive: 0.0326
GGCUGUGGAAUGACACCAATT against Sars2	inactive: -1.01
GGCAAAAUGCAUAGAGAUATT against Map4k5	inactive: -0.884
CGAAGUGGUUACAGAAUCUTT against A2ml1	inactive: 0.611
CCGCUCUUUUACAGCUGGATT against Rsl1d1	inactive: 1.99
GGAUCCAAAGAGUAUUGGATT against Olfr521	inactive: 0.345
GGUGAUGCAGCAGAUCAUUTT against Nfyc	inactive: 0.0427
GGUCUCUUUCAACAAAAAUTT against Sec22a	inactive: -1.81
GGCAGUCUCAGGUUAUCUCTT against Zfp445	inactive: 0.406
GGACCAUCUCUUAUGUCCATT against Olfr54	inactive: 0.85
GGAAAUCAGCAAAGUAAAATT against Golga1	inactive: -1.1
GGUGGCCUUUCUUUGUUUATT against BC049762	inactive: 0.821
GGUUUGCCACCUGUGUGUUTT against Rasgef1b	inactive: -0.209
GCCUAUCGAGGAGACACAUTT against Edil3	inactive: -0.178

Reprinted at random: 5 records from the list.
Sequence	z-score
GUUCACCGACAAGAGCUGCTT against Ccl26	inactive: 0.139
GGCUGUGGAAUGACACCAATT against Sars2	inactive: -1.01
GGUGAACCUCAAUAAUAUCTT against Tmod4	inactive: 0.274
GGUCUCUUUCAACAAAAAUTT against Sec22a	inactive: -1.81
UAGAAUCCAUGCAAGGGCGTT against Prss41	inactive: 1.18

Remaining list, next part.

Sequence	z-score
GCGUGAGAGAUACCGCCAUTT against Gnai2	inactive: -0.847
GGGAGAGGCACAAAGCAUATT against Ubxn10	inactive: -0.32
GCCUUUGUAGGUUCAAGUGTT against Zfp932	inactive: 1.31
CGUCAACUCCGACAUCUACTT against Tcerg1	inactive: -0.631
GGAAAAGGUUUUCUACAACTT against Ephx1	inactive: -1.11
GGUGGCACAUAAGAAAUCCTT against Trim66	inactive: -1.61
GACCCGCUGCUGCUCAAAUTT against Cdc42ep5	inactive: -0.178
GCUCAGAAUAUCACAUCAATT against Ppm1b	inactive: -1.59
GGUGAUACUAACAGCGGAGTT against Sort1	inactive: 0.359
CUCAAAAUCUGGUGAUAAATT against Adam34	active: 2.66
GGACGACAGUGCAAAGCAUTT against Usb1	active: -2.33
GGUCCCAGGUACAACAAAATT against Vmn1r73	inactive: 0.165
GGCCUAUUCACAGGUGUGATT against Tspear	inactive: -0.253
GCCUUUUCUACCUACACAATT against Paqr4	inactive: 0.865
GCUUGGUGGAAAUUUCUUGTT against Rwdd2b	inactive: 0.355
GGAUUCUAUGAGAAAGUUCTT against Abca7	inactive: -0.00468
GCCGCCUAAUGUUGACUUUTT against Usp37	inactive: -0.281
GGCAAAUUUUUGGAGAUGUTT against Hspa4	inactive: 0.931
GGACUUGUAUUAGCAGGAATT against Pparg	inactive: 1.93
GGACAGAUUCUCUGUGAAUTT against Cryab	inactive: 0.588
CCACUACGAAAUCAUUUCCTT against Car9	inactive: -0.153
GCAAUUCCACGUAUGGAUUTT against Olfr652	inactive: 0.336

Sequence	z-score
GGCUGGAGAAUUCUAGAAUTT against Lao1	inactive: 0.666
GGACUGACACUAUAAACUCTT against Ndufb2	inactive: 1.75
CCGCUCUACCACAGCCUUATT against Rnf145	inactive: 0.646
GUGGGAUUCCAGUAGAAAUTT against Olfr1116	inactive: 0.559
GCUUUUAGGCACCUGUGCUTT against Wfdc21	inactive: -1.26
GGCAAUGAUGAUCUCCUCUTT against Htra3	inactive: 0.434
GGAAGCUUCGAGGAUGAUGTT against Snx33	inactive: -0.656
GGUAGUAUCCCAGUUCCAUTT against Pgap4	inactive: 1.08
CCAGAAGUAUAGGACGCACTT against Pxdn	inactive: 0.115
GCACUUACUCAUUAAUCACTT against Rnf20	active: -2.56
CCUAAUAGAUGAAUCCAAUTT against Srgn	inactive: 0.773
GGUAAUAUUUCGUGCUUUATT against Lamb1	active: 2.1
GCAGAUGCUAUUUAUGCAGTT against Prpf6	inactive: -1.23
GCAAGUACCUAGUGGUGGATT against Tssk2	inactive: -0.28
GGAAAGAGUAAGAUUUUGATT against Dnah11	inactive: -0.292
GCUCACCUGAGUCAAUGAUTT against Nr5a2	active: -2.25
GCUACGCUAUUUUUGGCUUTT against Clec12a	inactive: 0.554
GCUCUAAACAUGAUUCAAGTT against Akap9	inactive: 1.17
GGGAUAUGUUUCUUGUAGGTT against Vmn1r14	inactive: -1.07
GGUCAGACCUGUUGAUAGATT against Nr3c1	inactive: 0.34
GGACCCUGUUCUUUGCUUATT against Srxn1	inactive: 0.255
CGGCUACUAUGUGAAACUGTT against Jph1	inactive: 0.236

Single values from the list:
In z-score, GGUCAGACCUGUUGAUAGATT against Nr3c1 reads inactive: 0.34
In z-score, GGCAAUGAUGAUCUCCUCUTT against Htra3 reads inactive: 0.434
In z-score, GGACUGACACUAUAAACUCTT against Ndufb2 reads inactive: 1.75

(listing goes on)

Sequence	z-score
CCCUUUUUAAUCGUCCCACTT against Nrep	inactive: -0.835
GGUGAUAAAGUCAUUCCACTT against Adh1	inactive: 0.759
GGAUAAACUUCCAUCUUUCTT against Car14	inactive: 0.0577
UCAAGAAAGGUCAUGUCAGTT against AY702102	inactive: -1.95
CCGUAAGGAUAUUCUCUAGTT against Pelo	inactive: -0.115
GGAAGAUGAUUCAGAUUUGTT against Adig	inactive: 1.49
GGGUUAUGGAUUUGAAGUGTT against Tmem131l	inactive: 1.3
GGAAAAAUCAGUUUCGUCUTT against Dgkq	inactive: 0.305
GGCUAAGUACUCAGCAUAGTT against Ctf2	inactive: 0.0269
CGACUCUGAAGCUAAACAATT against Npr3	inactive: -0.415
CCAGACAUUUGAUAGCCAUTT against Fam241a	inactive: -1.42
GGGUAUGGAUUCCUGUCAGTT against Pcca	inactive: -0.712
CCCGGGAUAGAGAGGAAAUTT against Nbl1	inactive: -0.256
GGACUUCACAAAGAGCUUUTT against Ogfod1	inactive: -0.606
GGAGGAGAAGAAGAAGGCCTT against Unc119b	inactive: 0.28
GGAGUUCUUUACAUUGGACTT against Olfr554	inactive: 0.324
CCCAAGUGGCAUCUAUUCATT against Capn3	inactive: -0.563
GGACUCUGUCUCCAUCUAATT against Map7	inactive: 1.38
GGUUGGACAGUAAGAUUCATT against Ubxn7	inactive: 1.23
